Experimental data as given in PMC8384837.
The other results are listed elsewhere or left out. At the low end of the ranking the order means little.

molecular target: T1, PUM1 PUF domain R1-QFR R2-VFQ R7-NPG S863Q + R864F + Q867R + N899V + Y900F + S1079N + N1080P + E1083G (UniProt Q14671); settings: yeast three-hybrid, YBZ-1, SC-Leu-His + 0.5 mM 3-AT, 4 days
T1 sequence: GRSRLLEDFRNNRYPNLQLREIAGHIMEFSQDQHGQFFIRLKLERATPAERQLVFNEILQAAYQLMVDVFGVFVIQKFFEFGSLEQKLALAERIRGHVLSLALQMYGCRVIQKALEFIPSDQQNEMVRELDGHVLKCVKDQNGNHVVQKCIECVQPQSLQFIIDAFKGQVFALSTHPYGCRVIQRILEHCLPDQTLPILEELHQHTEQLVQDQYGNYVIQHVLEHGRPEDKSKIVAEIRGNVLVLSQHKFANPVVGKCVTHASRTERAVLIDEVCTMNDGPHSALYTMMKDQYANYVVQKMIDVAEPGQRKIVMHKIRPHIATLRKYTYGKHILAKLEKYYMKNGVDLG

Row | Sequence | binding signal (log2 enrichment (interaction score))
1 | GGCUAGAACUAGUGGAUCCCCCGGCGCCCGGCGGCUCGAGCCCGGGUAAGUUCAAUAAGUCUGCAUGCCGCCGGGCGCCAUGCCUGCAGGUCGACUCUAGAAAACAUG | -4.13
2 | GGCUAGAACUAGUGGAUCCCCCGGCGCCCGGCGGCUCGAGCCCGGGUAAGUGUACGUCGUCUGCAUGCCGCCGGGCGCCAUGCCUGCAGGUCGACUCUAGAAAACAUG | -5.82
3 | GGCUAGAACUAGUGGAUCCCCCGGCGCCCGGCGGCUCGAGCCCGGGUAAGUGCUCAGGGUCUGCAUGCCGCCGGGCGCCAUGCCUGCAGGUCGACUCUAGAAAACAUG | -4.44
4 | GGCUAGAACUAGUGGAUCCCCCGGCGCCCGGCGGCUCGAGCCCGGGUAAGUUGGAGACGUCUGCAUGCCGCCGGGCGCCAUGCCUGCAGGUCGACUCUAGAAAACAUG | -6.13
5 | GGCUAGAACUAGUGGAUCCCCCGGCGCCCGGCGGCUCGAGCCCGGGUAAGUUUAUAAUGUCUGCAUGCCGCCGGGCGCCAUGCCUGCAGGUCGACUCUAGAAAACAUG | < -6.52
6 | GGCUAGAACUAGUGGAUCCCCCGGCGCCCGGCGGCUCGAGCCCGGGUAAGUGUAAAAAGUCUGCAUGCCGCCGGGCGCCAUGCCUGCAGGUCGACUCUAGAAAACAUG | -5.61
7 | GGCUAGAACUAGUGGAUCCCCCGGCGCCCGGCGGCUCGAGCCCGGGUAAGGUUCGAUAGUCUGCAUGCCGCCGGGCGCCAUGCCUGCAGGUCGACUCUAGAAAACAUG | -5.13
8 | GGCUAGAACUAGUGGAUCCCCCGGCGCCCGGCGGCUCGAGCCCGGGUAAGUUUAGCUCGUCUGCAUGCCGCCGGGCGCCAUGCCUGCAGGUCGACUCUAGAAAACAUG | < -6.73

Part of the list above in another layout:

| Row | Sequence | binding signal (log2 enrichment (interaction score)) |
| --- | --- | --- |
| 2 | GGCUAGAACUAGUGGAUCCCCCGGCGCCCGGCGGCUCGAGCCCGGGUAAGUGUACGUCGUCUGCAUGCCGCCGGGCGCCAUGCCUGCAGGUCGACUCUAGAAAACAUG | -5.82 |
| 3 | GGCUAGAACUAGUGGAUCCCCCGGCGCCCGGCGGCUCGAGCCCGGGUAAGUGCUCAGGGUCUGCAUGCCGCCGGGCGCCAUGCCUGCAGGUCGACUCUAGAAAACAUG | -4.44 |
